{"source": "the supplement of paper PMC12578635", "note": "± gives the standard deviation of the averaged measurements. Some of the results follow. Single values are uncertain, as repeats are few or missing.", "data": [{"system": "RAW 264.7 macrophages infected with S. aureus JE2-lux", "experiment": "host macrophage viability (CellTiter-Fluor) relative to DMSO vehicle; higher = more viable host cells", "conditions": "10 µM; treatment time 4 h; gentamicin 50 µg/ml", "units": {"host macrophage viability": "%"}, "values": [{"smiles": "CCc1ccc(N(CC(=O)Nc2ccccc2OC)C2=NC3CS(=O)(=O)CC3S2)cc1", "note": "(centres undefined)", "host macrophage viability": 123}, {"smiles": "COc1cc(C(=O)N2CCN=C2SCc2ccc([N+](=O)[O-])cc2)cc(OC)c1OC", "host macrophage viability": 91.5}, {"smiles": "O=C(c1ccccc1F)N1CCc2c(nc(N3CCOCC3)[nH]c2=O)C1", "host macrophage viability": 135}, {"smiles": "Cc1ccc(C(=O)CSc2nccn(-c3ccc(Cl)cc3)c2=O)cc1", "host macrophage viability": 119}, {"smiles": "COc1cc(OC)c(NC(=O)c2c(-c3ccccc3)nnc3ccc(C)cc23)cc1Cl", "host macrophage viability": 108}, {"smiles": "Cc1nc(OCC(=O)Nc2cc(F)ccc2F)c2c(C)c(C)oc2n1", "host macrophage viability": 125}, {"smiles": "Cc1cccn2c(=O)nc(SCc3c(F)cccc3Cl)nc12", "host macrophage viability": 113}, {"smiles": "CCOC(=O)c1nc(NC(C)c2ccccc2)c2c(-c3ccc(F)cc3)noc2n1", "note": "(centres undefined)", "host macrophage viability": 91.3}, {"smiles": "NC(=O)c1nc(Nc2ccccc2)sc1NC(=O)Cc1cccs1", "host macrophage viability": 116}, {"smiles": "O=C(CN1CCC(C(=O)c2ccc(F)cc2)CC1)Nc1cccc2ccccc12", "host macrophage viability": 108}, {"smiles": "COc1cc(-c2noc(CCCn3c(=O)[nH]c4cc5c(cc4c3=O)OCO5)n2)ccc1OC(C)C", "host macrophage viability": 121}, {"smiles": "Cc1nn(-c2ccc3nncn3n2)c2c1C(c1ccccc1OC1CCCC1)CC(=O)N2", "note": "(centres undefined)", "host macrophage viability": 96.4}, {"smiles": "Cc1oc2nc(SCC(=O)NC3CCCCC3)nc(N)c2c1C", "host macrophage viability": 105}, {"smiles": "COc1ccc(NS(=O)(=O)c2ccc(CCN3C(=O)c4cccc5cccc(c45)C3=O)cc2)cc1", "host macrophage viability": 120}, {"smiles": "Cc1cccc(Oc2ncnc(N)c2[N+](=O)[O-])c1C", "host macrophage viability": 122}, {"smiles": "CC(C)(C)C1=NN(CC(=O)Nc2nccs2)C(=O)c2cc3ccccc3n2C1", "host macrophage viability": 113}, {"smiles": "COc1ccc2c(c1)c1nnc(SCC(=O)NC3CCCCC3C)nc1n2C", "note": "(centres undefined)", "host macrophage viability": 108}, {"smiles": "Cc1nc2cc(-c3noc(C(C)Oc4ccccc4)n3)ccc2n(C)c1=O", "note": "(centres undefined)", "host macrophage viability": 122}, {"smiles": "CCOC(=O)c1ccc(NC(=O)/N=c2\\c3ccccc3[nH]c(=O)n2C(C)C)cc1", "host macrophage viability": 133}, {"smiles": "COc1ccc(CCNC(=O)c2cnc3sccn3c2=O)cc1OC", "host macrophage viability": "109 ± 4.8"}, {"smiles": "COc1cc(OC)cc(C(=O)NNc2nc3ccc(Cl)cc3s2)c1", "host macrophage viability": "102 ± 20"}, {"smiles": "COc1ccc(OC)c(C(=O)CSc2nnc3ncccn23)c1", "host macrophage viability": 103}, {"smiles": "O=C(CSc1nc(-c2ccco2)nc2cc(=O)[nH]n12)NCC1CCCO1", "note": "(centres undefined)", "host macrophage viability": 112}, {"smiles": "COc1ccc(CC(=O)n2nc(-c3ccccc3Cl)nc2N)cc1OC", "host macrophage viability": 116}, {"smiles": "COc1ccc(-c2ccc(SCC(=O)Nc3c[nH]c(=O)[nH]c3=O)nn2)cc1", "host macrophage viability": 103}, {"smiles": "O=C(Cn1ncn2nc(-c3ccccc3)cc2c1=O)NCC1CCCO1", "note": "(centres undefined)", "host macrophage viability": 104}, {"smiles": "O=C(NCC1CCCO1)C1CCCN(c2nccnc2Oc2ccccc2)C1", "note": "(centres undefined)", "host macrophage viability": 83.1}, {"smiles": "O=C(NCCCc1ccccc1)C(=O)NC1CCCC1", "host macrophage viability": 105}, {"smiles": "Cc1ccc(NC(=O)CN2C(=O)C(=O)c3ccccc32)c(C)c1", "host macrophage viability": 130}, {"smiles": "Cc1cc(=O)n2nc(NCc3ccc(C(=O)NCc4ccccc4F)cc3)nc2[nH]1", "host macrophage viability": 125}, {"smiles": "CCc1ccc(NC(=O)C2CC3CSCN3C23C(=O)N(CC)c2ccccc23)cc1", "note": "(centres undefined)", "host macrophage viability": 112}, {"smiles": "CCSc1nsc(NC(=O)Nc2ccc(OC)c(OC)c2)n1", "host macrophage viability": 93}, {"smiles": "COC(=O)C1=C(NC(=O)c2cccc([N+](=O)[O-])c2)CCS1", "host macrophage viability": 105}, {"smiles": "O=C(NCc1cccnc1)c1cnc(N2CCCCC2)c2ccccc12", "host macrophage viability": 120}, {"smiles": "O=C(NCc1ccccn1)C(=O)NCC(c1cccs1)N1CCc2ccccc21", "note": "(centres undefined)", "host macrophage viability": 114}, {"smiles": "CC(=O)N(Cc1cccnc1)c1nc2cc3c(cc2s1)OCCO3", "host macrophage viability": 116}, {"smiles": "Cc1ccc(C)c(NC(=O)Cn2c(=O)n(Cc3ccco3)c(=O)c3sc4ccccc4c32)c1", "host macrophage viability": 118}, {"smiles": "CCCSc1nc2c(c(=O)[nH]1)C(c1ccc(C)o1)C1=C(CCCC1=O)N2", "note": "(centres undefined)", "host macrophage viability": 128}, {"smiles": "COC(=O)c1c(-c2ccc(F)cc2)noc1Nc1cc(C)ccc1OC", "host macrophage viability": 101}, {"smiles": "Cn1c(=O)c2c(nc3oc(-c4ccc(F)cc4)cn32)n(C)c1=O", "host macrophage viability": "114 ± 8.3"}, {"smiles": "O=C1CCc2cc(S(=O)(=O)N3CCCC(CN4CCCC4)C3)ccc2N1", "note": "(centres undefined)", "host macrophage viability": 97.9}, {"smiles": "CCCC1N=C2c3ccccc3N=C(SC(C)C(=O)Nc3ccccc3)N2C1=O", "note": "(centres undefined)", "host macrophage viability": 114}, {"smiles": "COc1ccc2c(c1OC)C(=O)N(c1n[nH]c(SC)n1)C2=O", "host macrophage viability": 99.4}, {"smiles": "CCOC(=O)c1sc2nc(NC(=O)c3nc4ccccc4s3)sc2c1C", "host macrophage viability": 113}, {"smiles": "CCc1nc2ccc(C(=O)NCc3n[nH]c4c3CCCC4)cc2nc1CC", "host macrophage viability": 114}, {"smiles": "COc1ccc(C(=O)C2CCN(CC(=O)Nc3ccc4c(c3)OCCO4)CC2)cc1", "host macrophage viability": 129}, {"smiles": "CCSc1nc2c(c(=O)[nH]1)C(c1cccc(Br)c1)C(C(=O)OC(C)C)=C(C)N2", "note": "(centres undefined)", "host macrophage viability": 104}, {"smiles": "Cc1nc(C#N)c(N/N=C/C=C/c2ccccc2)o1", "host macrophage viability": 104}, {"smiles": "CCn1c(N2CCN(CC(=O)Nc3c(C)cccc3C)CC2)nc2ccccc21", "host macrophage viability": 118}, {"smiles": "O=C(CSc1ncnc2c1cnn2-c1ccc(Cl)cc1)Nc1ccc2c(c1)OCCO2", "host macrophage viability": 114}, {"smiles": "Cc1ccc2c(cnn2C(=O)NCCc2ccccc2)c1", "host macrophage viability": 98.7}, {"smiles": "Cc1ccc(Cn2c(CCCC(=O)NCCN(C)C)nc3cccnc32)cc1", "host macrophage viability": 118}, {"smiles": "CCOc1ccccc1NC(=O)c1nn(C)c(C(F)(F)F)c1Cl", "host macrophage viability": 108}, {"smiles": "Cc1ccc(C)c(N2CCN(c3c4c(nc5nc(C)nn35)CCCC4)CC2)c1", "host macrophage viability": 119}, {"smiles": "c1ccn(-c2ncnc3sc4c(c23)CCCC4)c1", "host macrophage viability": 122}, {"smiles": "O=C(CN1C(=O)c2cccc3cccc(c23)C1=O)Nc1nc2ccccc2s1", "host macrophage viability": 114}, {"smiles": "Cc1c(Cl)ccc2sc(N3CCN(C(=O)/C=C/c4cccc([N+](=O)[O-])c4)CC3)nc12", "host macrophage viability": 104}, {"smiles": "COc1ccc(OC)c(S(=O)(=O)NC(=N)NCCc2ccccc2OC)c1", "host macrophage viability": 112}, {"smiles": "O=C1c2ccccc2C(=O)N1CNc1ccccc1Cl", "host macrophage viability": "118 ± 12"}, {"smiles": "COC(=O)c1ccccc1NC(=O)CSc1nc(N)cc(=O)[nH]1", "host macrophage viability": 98.9}, {"smiles": "Cc1cc(-c2csc(S(=O)(=O)N3CCC(Cc4ccccc4)CC3)c2)on1", "host macrophage viability": 97.3}, {"smiles": "Cc1nc2cccc(NC(=O)COc3ncnc4ccccc34)c2[nH]1", "host macrophage viability": 124}, {"smiles": "CN(Cc1ccccc1)C(=O)CCn1cnc2c(-c3ccc(F)cc3)noc2c1=O", "host macrophage viability": 90.8}, {"smiles": "S=C(Nc1ccccc1)N1CCC(n2cnc3ccccc32)CC1", "host macrophage viability": 121}, {"smiles": "CCn1c(=O)c(N2CCN(C(=O)COc3ccc(F)cc3)CC2)c(C)n(-c2ccccc2)c1=O", "host macrophage viability": 115}, {"smiles": "N#Cc1c(NC(=O)CCSCCC(=O)Nc2sc3c(c2C#N)CCC3)sc2c1CCC2", "host macrophage viability": 131}, {"smiles": "O=C(NCc1cccc(F)c1)c1cnn2c(=O)c3c([nH]c12)CCCC3", "host macrophage viability": 110}, {"smiles": "O=C(NCc1ccc(F)cc1)C(=O)c1c[nH]c2ccccc12", "host macrophage viability": "121 ± 13"}, {"smiles": "CC(=O)N1CCCN(C(=O)c2ncoc2-c2ccc(F)cc2)CC1", "host macrophage viability": 93.1}, {"smiles": "Cc1nc(N2CCC(C(=O)NCCc3ccc(Cl)cc3)CC2)c2c(C)c(C)oc2n1", "host macrophage viability": 132}, {"smiles": "Cc1cccc(C2CCCN2C(=O)c2cnn3cc(Br)cnc23)c1", "note": "(centres undefined)", "host macrophage viability": 119}, {"smiles": "COC(=O)c1ccc(C(=O)Nc2ccc(N3CCC(C)CC3)c(C(N)=O)c2)s1", "host macrophage viability": 82.4}, {"smiles": "S=C(NCc1ccccc1)N1CCCC(c2nc3ccccc3[nH]2)C1", "note": "(centres undefined)", "host macrophage viability": 118}, {"smiles": "O=C(c1c(-c2ccccc2)nnc2ccccc12)N1CC=C(c2ccccc2)CC1", "host macrophage viability": 116}, {"smiles": "O=C(CSc1nc2ccccc2o1)N1CCc2ccccc21", "host macrophage viability": 108}, {"smiles": "CCOC(=O)c1ccccc1NC(=O)COc1cc(=O)n(-c2ccccc2Cl)nc1C(=O)OCC", "host macrophage viability": 122}, {"smiles": "Cc1nc(OCC(=O)NCc2cccnc2)c2c(C)c(C)oc2n1", "host macrophage viability": 120}, {"smiles": "CCN(CC)c1nc(N2CCOCC2)c2cnn(C)c2n1", "host macrophage viability": 122}, {"smiles": "O=S(=O)(c1ccc(-c2noc(-c3cc4cc(Cl)ccc4[nH]3)n2)cc1)N1CCCC1", "host macrophage viability": 143}, {"smiles": "O=C(NCCc1ccc(Cl)cc1)C(=O)Nc1ccc(F)c(F)c1", "host macrophage viability": 113}, {"smiles": "COC(=O)Cn1/c(=N/C(=O)CSCC(=O)Nc2cc(C)on2)sc2cc(OC)ccc21", "host macrophage viability": 117}, {"smiles": "Cn1ncc2c1CCc1sc(NC(=O)COCC3CCCCO3)nc1-2", "note": "(centres undefined)", "host macrophage viability": 117}, {"smiles": "Cc1cccc2cc(CN(Cc3ccc4c(c3)OCO4)C(=O)NCc3ccccc3)c3nnnn3c12", "host macrophage viability": 120}, {"smiles": "COc1ccc(-c2cnnn2-c2ccc(NC(=O)c3cc4ccccc4oc3=O)cc2)cc1OC", "host macrophage viability": 127}, {"smiles": "COC(=O)c1ccc(CSc2ncnc3c2nnn3-c2ccc(OC)cc2)o1", "host macrophage viability": "115 ± 9.3"}, {"smiles": "O=C(CN1C(=O)CCC1=O)Nc1ncc(S(=O)(=O)c2ccc([N+](=O)[O-])cc2)s1", "host macrophage viability": 121}, {"smiles": "Cn1c(=O)n(CC(=O)N2CCCC(c3ccccc3)C2)c2cccnc21", "note": "(centres undefined)", "host macrophage viability": 105}, {"smiles": "O=C(CCCN1C(=O)c2cccc3cccc(c23)C1=O)Nc1ccon1", "host macrophage viability": 114}, {"smiles": "Cc1cc(C)c2cc(CN(C(=O)c3cnccn3)C3CCCC3)c(Cl)nc2c1", "host macrophage viability": 99.9}, {"smiles": "O=C(CSc1ncc(CO)n1Cc1ccccc1)Nc1nccs1", "host macrophage viability": 126}, {"smiles": "O=C1c2cccc3cccc(c23)C(=O)N1CCc1ccc(S(=O)(=O)N2CCCCC2)cc1", "host macrophage viability": 125}, {"smiles": "CCn1c2ccccc2n2c(=O)n(CC(=O)NC(C)(C)C)nc12", "host macrophage viability": 108}, {"smiles": "COc1ccc(CNc2nc3c(S(=O)(=O)c4ccc(F)cc4)nnn3c3ccccc23)cc1", "host macrophage viability": 123}, {"smiles": "O=C(C1=C(O)C(=O)N(CCCn2ccnc2)C1c1ccccn1)c1ccccc1", "note": "(centres undefined)", "host macrophage viability": 101}, {"smiles": "Nc1nc(SCCCC(=O)NC2CCCCC2)nc2sc3c(c12)CCCC3", "host macrophage viability": 117}, {"smiles": "Oc1ccc(Nc2nc(-c3ccccc3)c3cc(Cl)ccc3n2)cc1", "host macrophage viability": 124}, {"smiles": "Cc1cc(C)nc(SCC(=O)Nc2ncc(Cc3cccc4ccccc34)s2)n1", "host macrophage viability": 116}, {"smiles": "CCOC(=O)c1ccccc1NC(=O)CSc1nc(=O)n(CCN(CC)CC)c2c1CCCC2", "host macrophage viability": 117}, {"smiles": "COc1cccc(C(=O)N2CC(=O)Nc3ccc(Cl)cc3C2c2ccc(F)cc2)c1OC", "note": "(centres undefined)", "host macrophage viability": 110}, {"smiles": "Cc1cn2c3c(=O)n(C/C=C/c4ccccc4)c(=O)n(C)c3nc2n1-c1ccccc1F", "host macrophage viability": 116}, {"smiles": "Cc1ccc(Cc2nnc(-c3cccc(NS(=O)(=O)c4ccc(N5CCCC5=O)cc4)c3)o2)cc1", "host macrophage viability": 86.7}, {"smiles": "COc1ccc(CNC(=O)Cn2nnc(-c3ccc(Cl)cc3)n2)cc1", "host macrophage viability": 118}, {"smiles": "Cc1ccc2cc(CCNC(=O)C3CC3)c(=O)[nH]c2c1C", "host macrophage viability": 123}, {"smiles": "O=c1[nH]c2ccccc2n1CCCSc1cccc2cccnc12", "host macrophage viability": 118}]}]}
